Substitutions are numbered along the chain they refer to. These are yes or no findings as the source states them, for the method shown. In cells and extracts the contact can be indirect. For some of these results: A result given as binding can be weak or reduced; the word gives no strength. For some of these results: Tags and fused reporters may be left off the sequences shown. Values belong to the substance of their own block, whether it stands above or below them.
Tests used:
Flag-OGT-S20A = biological target: T1, Flag-OGT-S20A (UniProt O15294); assay: co-IP; cells co-transfected with Flag-OGT (WT or S20A) and HA-14-3-3 isoforms; immunoprecipitated with anti-Flag
T1 sequence: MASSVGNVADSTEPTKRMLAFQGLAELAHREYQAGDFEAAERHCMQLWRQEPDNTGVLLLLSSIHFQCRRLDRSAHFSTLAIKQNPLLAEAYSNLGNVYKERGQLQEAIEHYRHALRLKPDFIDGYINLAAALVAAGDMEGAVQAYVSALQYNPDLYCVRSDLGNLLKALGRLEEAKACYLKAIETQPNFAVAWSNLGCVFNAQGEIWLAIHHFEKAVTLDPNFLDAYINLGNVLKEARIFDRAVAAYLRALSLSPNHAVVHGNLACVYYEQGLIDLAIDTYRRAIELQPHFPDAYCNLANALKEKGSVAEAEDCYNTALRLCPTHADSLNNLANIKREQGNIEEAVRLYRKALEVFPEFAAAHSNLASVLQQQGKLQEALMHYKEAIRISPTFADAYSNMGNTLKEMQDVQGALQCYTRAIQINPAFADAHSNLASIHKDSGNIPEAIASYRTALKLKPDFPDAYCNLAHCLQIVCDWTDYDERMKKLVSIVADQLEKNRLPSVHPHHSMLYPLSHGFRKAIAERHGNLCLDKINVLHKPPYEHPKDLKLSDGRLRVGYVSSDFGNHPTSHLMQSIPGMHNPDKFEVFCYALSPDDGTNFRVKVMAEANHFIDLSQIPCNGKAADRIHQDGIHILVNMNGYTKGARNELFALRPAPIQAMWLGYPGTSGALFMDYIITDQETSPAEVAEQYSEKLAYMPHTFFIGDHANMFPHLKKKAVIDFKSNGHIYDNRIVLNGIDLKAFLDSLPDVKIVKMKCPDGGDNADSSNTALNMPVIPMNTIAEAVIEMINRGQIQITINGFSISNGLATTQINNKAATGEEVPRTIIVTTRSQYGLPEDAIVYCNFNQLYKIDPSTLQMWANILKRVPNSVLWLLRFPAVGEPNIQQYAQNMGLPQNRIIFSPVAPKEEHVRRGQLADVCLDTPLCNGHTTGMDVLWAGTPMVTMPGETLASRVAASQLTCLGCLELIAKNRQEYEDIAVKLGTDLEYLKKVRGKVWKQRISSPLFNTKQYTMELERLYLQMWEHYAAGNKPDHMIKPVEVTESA

Flag-OGT-WT [1] = biological target: T2, Flag-OGT-WT (UniProt O15294); assay: as above
T2 sequence: T1 sequence with A20S

[2] = biological target: T3, endogenous OGT (human (endogenous in HeLa or HEK293T)) (UniProt O15294); assay: co-IP; endogenous OGT and endogenous 14-3-3 (pan-14-3-3 antibody)
T3 sequence: T1 sequence with A20S

HA-OGT-S20A = biological target: T4, HA-OGT-S20A (UniProt O15294); assay: co-IP; cells transfected with HA-OGT (WT or S20A), with or without Flag-Chk1; immunoprecipitated with anti-HA, blotted with anti-pan 14-3-3
T4 sequence: T1 sequence

HA-OGT-WT = biological target: T5, HA-OGT-WT (UniProt O15294); assay: as above
T5 sequence: T1 sequence with A20S

[3] = biological target: T3, endogenous OGT (human (endogenous in HeLa or HEK293T)); assay: co-IP; endogenous OGT and endogenous 14-3-3ε (14-3-3ε antibody); cells with or without Nocodazole (M phase)
Flag-OGT-WT [4] = biological target: T2, Flag-OGT-WT; assay: co-IP; cells transfected with Flag-OGT-WT or -S20A; endogenous 14-3-3ε detected with 14-3-3ε antibody

binding (Flag-OGT-S20A): no binding | binding (Flag-OGT-WT [1]): binds
Substance: HA-14-3-3ε

binding [2]: binds | binding (HA-OGT-S20A): binds | binding (HA-OGT-WT): binds
Substance: endogenous 14-3-3 (detected with a pan-14-3-3 antibody) (human (endogenous in HeLa or HEK293T))

binding [3]: binds | binding (Flag-OGT-WT [4]): binds
Substance: endogenous 14-3-3ε (human (endogenous in HeLa or HEK293T))
